Measurements taken from US20100323456A1, “Endothelin Receptors in Morphine Withdrawal” (priority 2006, published 2010).
Read-outs that look alike come from different tables or passages of the source.

Biological target: G-proteins coupled to opioid and ET receptors
Test: [35S]GTPγS binding assay (G-protein stimulation) in neuronal membranes of neonatal rat brain, placebo and morphine withdrawal groups
Assay type: biochemical
Settings: read-out: EC50 for stimulated [35S]GTPγS binding

With CN1CC[C@]23c4c5ccc(O)c4O[C@H]2[C@@H](O)C=C[C@H]3[C@H]1C5 [Morphine] the EC50 (morphine withdrawal group) was 28.78 ± 0.17 nM and the EC50 (placebo group) was 170.6 ± 0.1 nM.
